Measurements reported in patent US20030225152A1, “3-(Arylamino)methylene-1, 3-dihydro-2h-indol-2-ones as kinase inhibitors” (priority 2001, published 2003).
Some of these results come from one statement about several compounds together. For part of these data: At least one read-out could not be matched to a standard name with certainty. Each block holds one molecule with its values, some of them ahead of it.

Chains of the proteins cited; added tags and fusions are not shown. Residues count along the entry.
UniProt P35968, 786-1356: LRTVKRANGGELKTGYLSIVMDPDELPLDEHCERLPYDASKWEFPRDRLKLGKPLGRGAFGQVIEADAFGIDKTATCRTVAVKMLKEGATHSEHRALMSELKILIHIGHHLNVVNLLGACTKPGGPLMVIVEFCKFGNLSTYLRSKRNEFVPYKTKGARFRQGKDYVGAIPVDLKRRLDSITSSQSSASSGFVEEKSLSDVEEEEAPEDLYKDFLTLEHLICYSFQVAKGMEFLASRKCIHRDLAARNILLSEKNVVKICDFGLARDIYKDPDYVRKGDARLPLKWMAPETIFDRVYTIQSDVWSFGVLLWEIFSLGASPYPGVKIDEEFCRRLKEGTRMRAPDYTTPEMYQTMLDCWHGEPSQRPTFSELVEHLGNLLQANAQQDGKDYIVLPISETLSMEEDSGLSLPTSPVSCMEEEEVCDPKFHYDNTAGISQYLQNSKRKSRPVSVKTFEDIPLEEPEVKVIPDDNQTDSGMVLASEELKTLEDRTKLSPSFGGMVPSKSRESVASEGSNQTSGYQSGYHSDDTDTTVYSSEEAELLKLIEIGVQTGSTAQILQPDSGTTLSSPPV

Columns and labels:
[1] = system: VEGF induced increases in intracellular calcium levels in HUVEC (human umbilical vein endothelial cells); assay: VEGF Stimulated Ca++ Signal in vitro (FLIPR); type: cell-based; details: either-or criterion summarising Table 2
Protocol: Cells were loaded with calcium indicator Fluo-4 for 45 minutes at 37° C. Cells were washed 4 times (Original Cell Wash, Labsystems) to remove extracellular dye. […] Data were generated by determining max-min fluorescence levels for unstimulated, stimulated, and drug treated samples. IC50 values for test compounds were calculated from % inhibition of VEGF stimulated responses in the absence of inhibitor.

[2] = biological target: T1, cytoplasmic domain of the human VEGF receptor (VEGFR-2) (Homo sapiens, UniProt P35968); assay: KDR Assay; type: biochemical; details: His-VEGFR-2; 3.6 μM ATP
T1 construct: The cytoplasmic domain of the human VEGF receptor (VEGFR-2) was expressed as a Histidine-tagged fusion protein; Histidine tag
Protocol: The plates were incubated with 1% BSA and then washed four times with PBS prior to starting the reaction. […] Reactions were initiated by the addition 0.5 ng of purified protein. […] The reaction was terminated by the addition of 100 μl of 2.5N H2SO4 to each well and read using a microplate ELISA reader set at 492 nm. IC50 values for compound inhibition were calculated directly from graphs of optical density (arbitrary units) versus compound concentration following subtraction of blank values.

Structure (SMILES): O=C1Nc2ccc(F)cc2C1=CNc1ccc(OCCN2CCCC2)cc1 [Example 274, 5-Fluoro-3-{[4-(2-pyrrolidin-1-yl-ethoxy)-phenylamino]-methylene}-1,3-dihydro-indol-2-one]
% inhibition of VEGF or VEGF IC50 in either the VEGF stimulated Ca++ signal assay or KDR assay [1]: either % inhibition of VEGF>79% or VEGIF IC50<1.0 μM | IC50 [2]: ≤ 1000 nM

Structure (SMILES): O=C1Nc2ccc(Cl)cc2C1=CNc1ccc(OCCN2CCCC2)cc1 [Example 275, 5-Chloro-3-{[4-(2-pyrrolidin-1-yl-ethoxy)-phenylamino]-methylene}-1,3-dihydro-indol-2-one]
% inhibition of VEGF or VEGF IC50 in either the VEGF stimulated Ca++ signal assay or KDR assay [1]: either % inhibition of VEGF>79% or VEGIF IC50<1.0 μM | IC50 [2]: ≤ 1000 nM

Structure (SMILES): Cc1cccc2c1C(=CNc1ccc(OCC3CCCN(C)C3)cc1)C(=O)N2 (stereo not drawn) [Example 278, 4-Methyl-3-{[4-(1-methyl-piperidin-3-ylmethoxy)-phenylamino]-methylene}-1,3-dihydro-indol-2-one]
% inhibition of VEGF or VEGF IC50 in either the VEGF stimulated Ca++ signal assay or KDR assay [1]: either % inhibition of VEGF>79% or VEGIF IC50<1.0 μM | IC50 [2]: ≤ 1000 nM

Structure (SMILES): CN1CCCC(COc2ccc(NC=C3C(=O)Nc4cc(F)ccc43)cc2)C1 (stereo not drawn) [Example 279, 6-Fluoro-3-{[4-(1-methyl-piperidin-3-ylmethoxy)-phenylamino]-methylene}-1,3-dihydro-indol-2-one]
% inhibition of VEGF or VEGF IC50 in either the VEGF stimulated Ca++ signal assay or KDR assay [1]: either % inhibition of VEGF>79% or VEGIF IC50<1.0 μM | IC50 [2]: ≤ 1000 nM

Structure (SMILES): CN1CCCC(COc2ccc(NC=C3C(=O)Nc4ccccc43)cc2)C1 (stereo not drawn) [Example 280, 3-{[4-(1-Methyl-piperidin-3-ylmethoxy)-phenylamino]-methylene}-1,3-dihydro-indol-2-one]
% inhibition of VEGF or VEGF IC50 in either the VEGF stimulated Ca++ signal assay or KDR assay [1]: either % inhibition of VEGF>79% or VEGIF IC50<1.0 μM | IC50 [2]: ≤ 1000 nM

Structure (SMILES): CN1CCCC(COc2ccc(NC=C3C(=O)Nc4cccc(F)c43)cc2)C1 (stereo not drawn) [Example 281, 4-Fluoro-3-{[4-(1-methyl-piperidin-3-ylmethoxy)-phenylamino]-methylene}-1,3-dihydro-indol-2-one]
% inhibition of VEGF or VEGF IC50 in either the VEGF stimulated Ca++ signal assay or KDR assay [1]: either % inhibition of VEGF>79% or VEGIF IC50<1.0 μM | IC50 [2]: ≤ 1000 nM

Structure (SMILES): CN1CCCC(COc2ccc(NC=C3C(=O)Nc4ccc(F)cc43)cc2)C1 (stereo not drawn) [Example 282, 5-Fluoro-3-{[4-(1-methyl-piperidin-3-ylmethoxy)-phenylamino]-methylene}-1,3-dihydro-indol-2-one]
% inhibition of VEGF or VEGF IC50 in either the VEGF stimulated Ca++ signal assay or KDR assay [1]: either % inhibition of VEGF>79% or VEGIF IC50<1.0 μM | IC50 [2]: ≤ 1000 nM

Structure (SMILES): CN1CCCC(COc2ccc(NC=C3C(=O)Nc4ccc(Cl)cc43)cc2)C1 (stereo not drawn) [Example 283, 5-Chloro-3-{[4-(1-methyl-piperidin-3-ylmethoxy)-phenylamino]-methylene}-1,3-dihydro-indol-2-one]
% inhibition of VEGF or VEGF IC50 in either the VEGF stimulated Ca++ signal assay or KDR assay [1]: either % inhibition of VEGF>79% or VEGIF IC50<1.0 μM | IC50 [2]: ≤ 1000 nM

Structure (SMILES): O=C1Nc2ccccc2C1=CNc1ccc(CCN2CCCCC2)cc1 [Example 284, 3-{[4-(2-Piperidin-1-yl-ethyl)-phenylamino]-methylene}-1,3-dihydro-indol-2-one]
% inhibition of VEGF or VEGF IC50 in either the VEGF stimulated Ca++ signal assay or KDR assay [1]: either % inhibition of VEGF>79% or VEGIF IC50<1.0 μM | IC50 [2]: ≤ 1000 nM

Structure (SMILES): O=C1Nc2ccc(Cl)cc2C1=CNc1ccc(CCN2CCCCC2)cc1 [Example 285, 5-Chloro-3-{[4-(2-piperidin-1-yl-ethyl)-phenylamino]-methylene}-1,3-dihydro-indol-2-one]
% inhibition of VEGF or VEGF IC50 in either the VEGF stimulated Ca++ signal assay or KDR assay [1]: either % inhibition of VEGF>79% or VEGIF IC50<1.0 μM | IC50 [2]: ≤ 1000 nM

Structure (SMILES): Cc1cccc2c1C(=CNc1ccc(CCN3CCCCC3)cc1)C(=O)N2 [Example 286, 4-Methyl-3-{[4-(2-piperidin-1-yl-ethyl)-phenylamino]-methylene}-1,3-dihydro-indol-2-one]
% inhibition of VEGF or VEGF IC50 in either the VEGF stimulated Ca++ signal assay or KDR assay [1]: either % inhibition of VEGF>79% or VEGIF IC50<1.0 μM | IC50 [2]: ≤ 1000 nM

Structure (SMILES): O=C1Nc2cccc(F)c2C1=CNc1ccc(CCN2CCCCC2)cc1 [Example 287, 4-Fluoro-3-{[4-(2-piperidin-1-yl-ethyl)-phenylamino]-methylene}-1,3-dihydro-indol-2-one]
% inhibition of VEGF or VEGF IC50 in either the VEGF stimulated Ca++ signal assay or KDR assay [1]: either % inhibition of VEGF>79% or VEGIF IC50<1.0 μM | IC50 [2]: ≤ 1000 nM

Structure (SMILES): O=C1Nc2ccc(F)cc2C1=CNc1ccc(CCN2CCCCC2)cc1 [Example 288, 5-Fluoro-3-{[4-(2-piperidin-1-yl-ethyl)-phenylamino]-methylene}-1,3-dihydro-indol-2-one]
% inhibition of VEGF or VEGF IC50 in either the VEGF stimulated Ca++ signal assay or KDR assay [1]: either % inhibition of VEGF>79% or VEGIF IC50<1.0 μM | IC50 [2]: ≤ 1000 nM

Structure (SMILES): O=C1Nc2cc(F)ccc2C1=CNc1ccc(CCN2CCCCC2)cc1 [Example 289, 6-Fluoro-3-{[4-(2-piperidin-1-yl-ethyl)-phenylamino]-methylene}-1,3-dihydro-indol-2-one]
% inhibition of VEGF or VEGF IC50 in either the VEGF stimulated Ca++ signal assay or KDR assay [1]: either % inhibition of VEGF>79% or VEGIF IC50<1.0 μM | IC50 [2]: ≤ 1000 nM

Now from value to molecule, other results behind:

IC50 [2]: ≤ 1000 nM
Structure (SMILES): O=C1Nc2ccc(Cl)cc2C1=CNc1ccc(CN2CCCCC2)cc1 [Example 260, 5-Chloro-3-[(4-piperidin-1-ylmethyl-phenylamino)-methylene]-1,3-dihydro-indol-2-one]
% inhibition of VEGF or VEGF IC50 in either the VEGF stimulated Ca++ signal assay or KDR assay [1]: either % inhibition of VEGF>79% or VEGIF IC50<1.0 μM

IC50 [2]: ≤ 1000 nM
Structure (SMILES): O=C1Nc2ccc(Cl)cc2C1=CNc1ccc(OCCN2CCCCC2)cc1 [Example 262, 5-Chloro-3-{[4-(2-piperidin-1-yl-ethoxy)-phenylamino]-methylene}-1,3-dihydro-indol-2-one]
% inhibition of VEGF or VEGF IC50 in either the VEGF stimulated Ca++ signal assay or KDR assay [1]: either % inhibition of VEGF>79% or VEGIF IC50<1.0 μM

IC50 [2]: ≤ 1000 nM
Structure (SMILES): O=C1Nc2ccc(F)cc2C1=CNc1ccc(OCCN2CCCCC2)cc1 [Example 263, 5-Fluoro-3-{[4-(2-piperidin-1-yl-ethoxy)-phenylamino]-methylene}-1,3-dihydro-indol-2-one]
% inhibition of VEGF or VEGF IC50 in either the VEGF stimulated Ca++ signal assay or KDR assay [1]: either % inhibition of VEGF>79% or VEGIF IC50<1.0 μM

IC50 [2]: ≤ 1000 nM
Structure (SMILES): CCN(CC)CCOc1ccc(NC=C2C(=O)Nc3cccc(C)c32)cc1 [Example 264, 3-{[4-(2-Diethylamino-ethoxy)-phenylamino]-methylene}-4-methyl-1,3-dihydro-indol-2-one]
% inhibition of VEGF or VEGF IC50 in either the VEGF stimulated Ca++ signal assay or KDR assay [1]: either % inhibition of VEGF>79% or VEGIF IC50<1.0 μM

IC50 [2]: ≤ 1000 nM
Structure (SMILES): CCN(CC)CCOc1ccc(NC=C2C(=O)Nc3ccccc32)cc1 [Example 265, 3-{[4-(2-Diethylamino-ethoxy)-phenylamino]-methylene}-1,3-dihydro-indol-2-one]
% inhibition of VEGF or VEGF IC50 in either the VEGF stimulated Ca++ signal assay or KDR assay [1]: either % inhibition of VEGF>79% or VEGIF IC50<1.0 μM

IC50 [2]: ≤ 1000 nM
Structure (SMILES): Cc1cccc2c1C(=CNc1ccc(OCCN3CCCC3)cc1)C(=O)N2 [Example 270, 4-Methyl-3-{[4-(2-pyrrolidin-1-yl-ethoxy)-phenylamino]-methylene}-1,3-dihydro-indol-2-one]
% inhibition of VEGF or VEGF IC50 in either the VEGF stimulated Ca++ signal assay or KDR assay [1]: either % inhibition of VEGF>79% or VEGIF IC50<1.0 μM

IC50 [2]: ≤ 1000 nM
Structure (SMILES): O=C1Nc2ccccc2C1=CNc1ccc(OCCN2CCCC2)cc1 [Example 272, 3-{[4-(2-Pyrrolidin-1-yl-ethoxy)-phenylamino]-methylene}-1,3-dihydro-indol-2-one]
% inhibition of VEGF or VEGF IC50 in either the VEGF stimulated Ca++ signal assay or KDR assay [1]: either % inhibition of VEGF>79% or VEGIF IC50<1.0 μM
